Data as given in article PMC5044849.
These are yes or no findings as the source states them, for the method shown. Binding seen in cells or lysates may run through a third protein. Some entries that bind do so weakly or less than the wild type.

The chains behind the UniProt entries cited, without tags or fusion partners. Where a name states a change or a piece, a line headed by the entry shows the natural chain unless it says otherwise. A line that says so, or that is headed by a name, gives the form on record, which may keep a tag or linker. Residues count along the entry.
UniProt P35790: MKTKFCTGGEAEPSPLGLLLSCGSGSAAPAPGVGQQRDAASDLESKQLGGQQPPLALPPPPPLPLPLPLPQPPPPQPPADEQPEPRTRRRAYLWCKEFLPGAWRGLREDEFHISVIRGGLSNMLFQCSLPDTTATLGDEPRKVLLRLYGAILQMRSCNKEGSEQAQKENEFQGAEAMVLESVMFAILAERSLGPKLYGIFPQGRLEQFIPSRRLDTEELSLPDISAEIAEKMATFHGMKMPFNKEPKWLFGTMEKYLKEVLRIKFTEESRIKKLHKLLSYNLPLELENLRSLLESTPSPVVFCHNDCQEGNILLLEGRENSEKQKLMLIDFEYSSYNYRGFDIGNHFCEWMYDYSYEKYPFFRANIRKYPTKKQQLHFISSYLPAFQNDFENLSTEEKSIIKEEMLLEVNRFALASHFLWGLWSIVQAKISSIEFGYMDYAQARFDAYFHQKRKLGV
hCKα tagged with Myc and DDDK (Flag) at the C terminus (pCMV6-hCKα; pCMV6-hCKα-R) (P35790-2, form named): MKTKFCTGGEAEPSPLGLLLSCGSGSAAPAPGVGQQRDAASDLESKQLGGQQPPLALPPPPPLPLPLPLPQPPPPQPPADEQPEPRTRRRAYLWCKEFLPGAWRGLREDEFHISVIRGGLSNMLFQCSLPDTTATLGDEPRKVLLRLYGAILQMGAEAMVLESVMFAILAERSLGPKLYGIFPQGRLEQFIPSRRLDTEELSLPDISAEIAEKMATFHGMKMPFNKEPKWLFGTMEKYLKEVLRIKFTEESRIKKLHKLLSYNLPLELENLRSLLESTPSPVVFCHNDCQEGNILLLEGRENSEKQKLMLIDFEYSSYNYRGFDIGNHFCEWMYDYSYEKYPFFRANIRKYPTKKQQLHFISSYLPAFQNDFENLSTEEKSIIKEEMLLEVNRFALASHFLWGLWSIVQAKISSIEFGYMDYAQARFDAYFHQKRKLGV
UniProt Q99IB8, residues 1977-2442: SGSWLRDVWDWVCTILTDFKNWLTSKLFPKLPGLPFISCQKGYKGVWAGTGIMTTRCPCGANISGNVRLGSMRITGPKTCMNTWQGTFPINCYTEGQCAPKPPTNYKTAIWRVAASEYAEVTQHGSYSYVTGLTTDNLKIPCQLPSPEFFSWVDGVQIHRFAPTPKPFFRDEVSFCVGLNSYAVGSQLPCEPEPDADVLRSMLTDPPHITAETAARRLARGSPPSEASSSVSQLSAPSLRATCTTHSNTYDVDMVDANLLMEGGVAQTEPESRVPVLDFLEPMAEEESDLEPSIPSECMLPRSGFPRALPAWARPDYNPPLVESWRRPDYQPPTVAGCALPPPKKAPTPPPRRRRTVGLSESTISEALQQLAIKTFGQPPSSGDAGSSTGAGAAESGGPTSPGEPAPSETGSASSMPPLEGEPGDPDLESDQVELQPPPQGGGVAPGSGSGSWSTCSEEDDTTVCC

Assays:
[1] = target: hCKα tagged with Myc and DDDK (Flag) at the C terminus (pCMV6-hCKα; pCMV6-hCKα-R) (human) (UniProt P35790); experiment: co-IP; Huh7 cells expressing hCKα-Flag and HA-NS5A; lysates precipitated with rabbit anti-Flag; immunoblot
[2] = target: NS5A expressed from pTM-NS5A (T7 promoter) (hepatitis C virus (strain not stated)) (UniProt Q99IB8); experiment: co-IP; T7 Pol/Huh7 cells cotransfected with pTM-NS5A and pTM-NS5B, treated with DMSO or CK37 (100 μM, 24 h); lysates precipitated with NS5A MAb or isotype IgG; immunoblot
[3] = target: HA-tagged NS5A of the genotype 1b Con1 strain (hepatitis C virus genotype 1b Con1 strain) (UniProt Q9WMX2); experiment: co-IP; 293T cells cotransfected with HA-tagged Con1 NS proteins and hCKα-Flag; lysed with 1% CHAPS; precipitated with rabbit anti-HA; immunoblot
[4] = target: NS5A expressed from pTM-NS5A (T7 promoter) (hepatitis C virus (strain not stated)) (UniProt Q99IB8); experiment: co-IP; control and hCKα stable knockdown Huh7 cells with T7 RNA polymerase, transfected with wild-type hCKα, hCKα-R or D288A hCKα-R, then with pTM-NS5A and pTM-NS5B; lysates precipitated with NS5A MAb or isotype IgG; immunoblot

Substance: HA-tagged NS5A of the genotype 1b Con1 strain (from UniProt Q9WMX2 1973-2419)
- binding [1]: binds

Substance: human choline kinase-α (endogenous) (from UniProt P35790 1-457) (enzyme)
- binding [2]: binds

Substance: hCKα tagged with Myc and DDDK (Flag) at the C terminus (pCMV6-hCKα; pCMV6-hCKα-R) (from UniProt P35790-2 1-439) (enzyme)
- binding [3]: binds
- binding [4]: binds
